Experimental data from publication doi:10.1101/2022.07.11.499622.
No constants are given. Whether binding was seen depends on the method and setting. In cells and extracts the contact can be indirect. Some binding calls cover weakened binding; strength is not graded here. For part of these data: Where a sequence is shown, tags or fusion partners need not be part of it. Blank lines part the entries; values can stand above or below the binder they belong to.

Protein sequences, listed by entry. Tags and fused reporters are not part of them. Lines headed by an entry give the natural chain unless they say otherwise; changes in a name come on top. Chains listed by the source or under a name are the forms on record and can include a tag or linker. Residues count along the entry.
BRI1-GFP (O22476, residues 24-1196): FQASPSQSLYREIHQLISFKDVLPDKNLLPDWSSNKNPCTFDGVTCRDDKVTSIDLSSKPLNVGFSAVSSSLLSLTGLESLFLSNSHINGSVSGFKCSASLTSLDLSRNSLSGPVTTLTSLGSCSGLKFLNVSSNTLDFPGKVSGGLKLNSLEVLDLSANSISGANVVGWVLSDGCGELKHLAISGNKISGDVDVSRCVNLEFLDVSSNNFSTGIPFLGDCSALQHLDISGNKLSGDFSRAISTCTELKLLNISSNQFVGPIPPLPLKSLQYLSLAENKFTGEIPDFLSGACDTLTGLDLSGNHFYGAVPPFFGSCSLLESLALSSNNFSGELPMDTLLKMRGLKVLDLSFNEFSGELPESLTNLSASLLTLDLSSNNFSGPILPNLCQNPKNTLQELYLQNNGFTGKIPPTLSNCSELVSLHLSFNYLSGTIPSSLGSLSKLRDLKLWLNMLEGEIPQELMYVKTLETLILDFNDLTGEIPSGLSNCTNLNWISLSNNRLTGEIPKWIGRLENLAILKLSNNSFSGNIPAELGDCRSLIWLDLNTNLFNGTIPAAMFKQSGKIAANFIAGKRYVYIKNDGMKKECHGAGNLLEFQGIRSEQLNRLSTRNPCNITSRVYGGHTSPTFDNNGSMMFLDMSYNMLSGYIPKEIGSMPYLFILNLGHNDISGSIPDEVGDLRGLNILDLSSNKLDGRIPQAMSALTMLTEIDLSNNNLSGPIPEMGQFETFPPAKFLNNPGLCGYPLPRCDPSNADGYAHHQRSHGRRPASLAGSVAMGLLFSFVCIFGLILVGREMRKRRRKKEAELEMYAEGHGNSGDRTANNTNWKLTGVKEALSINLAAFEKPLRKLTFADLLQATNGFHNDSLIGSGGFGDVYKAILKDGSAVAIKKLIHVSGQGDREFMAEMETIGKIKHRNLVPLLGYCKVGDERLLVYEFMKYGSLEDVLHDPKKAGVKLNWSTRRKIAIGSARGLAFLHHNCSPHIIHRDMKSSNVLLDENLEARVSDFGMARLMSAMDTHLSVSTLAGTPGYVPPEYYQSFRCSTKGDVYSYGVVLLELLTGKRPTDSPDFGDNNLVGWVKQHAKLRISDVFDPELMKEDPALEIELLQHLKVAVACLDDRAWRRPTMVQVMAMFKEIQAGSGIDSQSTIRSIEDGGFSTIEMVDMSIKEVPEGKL
BRI1^Q-GFP (BRI1^Y597M/Y599F/Y642A/M657E/F681A with C-terminal GFP) (O22476, form named): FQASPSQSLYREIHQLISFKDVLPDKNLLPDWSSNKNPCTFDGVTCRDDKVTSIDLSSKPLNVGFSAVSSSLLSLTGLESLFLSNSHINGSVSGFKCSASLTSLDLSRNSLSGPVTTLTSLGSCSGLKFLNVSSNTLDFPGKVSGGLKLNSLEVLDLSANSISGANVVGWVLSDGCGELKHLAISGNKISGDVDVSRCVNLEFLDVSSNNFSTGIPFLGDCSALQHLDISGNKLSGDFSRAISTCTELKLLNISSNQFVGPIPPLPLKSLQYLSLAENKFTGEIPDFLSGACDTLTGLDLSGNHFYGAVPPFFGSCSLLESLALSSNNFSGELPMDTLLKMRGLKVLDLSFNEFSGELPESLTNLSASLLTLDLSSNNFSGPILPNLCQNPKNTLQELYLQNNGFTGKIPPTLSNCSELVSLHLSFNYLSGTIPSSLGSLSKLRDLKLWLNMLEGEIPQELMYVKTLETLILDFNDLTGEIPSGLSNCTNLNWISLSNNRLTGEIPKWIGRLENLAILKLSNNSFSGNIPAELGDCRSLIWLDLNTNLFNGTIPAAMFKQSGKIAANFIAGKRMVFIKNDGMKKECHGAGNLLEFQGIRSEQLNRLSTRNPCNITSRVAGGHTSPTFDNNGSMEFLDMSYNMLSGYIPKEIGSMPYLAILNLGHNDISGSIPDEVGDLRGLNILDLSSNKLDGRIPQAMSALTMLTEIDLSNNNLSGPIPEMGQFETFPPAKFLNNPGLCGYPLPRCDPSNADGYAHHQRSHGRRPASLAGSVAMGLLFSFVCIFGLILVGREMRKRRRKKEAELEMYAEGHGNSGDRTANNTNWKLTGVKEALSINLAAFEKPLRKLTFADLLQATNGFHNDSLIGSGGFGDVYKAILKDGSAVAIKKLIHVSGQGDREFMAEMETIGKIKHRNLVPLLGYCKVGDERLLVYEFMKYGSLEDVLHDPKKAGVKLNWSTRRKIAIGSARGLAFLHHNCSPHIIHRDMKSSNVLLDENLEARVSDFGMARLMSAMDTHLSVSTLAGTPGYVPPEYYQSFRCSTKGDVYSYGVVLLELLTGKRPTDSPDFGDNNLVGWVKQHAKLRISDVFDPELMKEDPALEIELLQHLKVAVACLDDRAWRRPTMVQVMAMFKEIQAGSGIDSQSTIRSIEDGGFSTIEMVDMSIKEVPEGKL

Experiments:
Assay in all cases: co-IP
[1] = target: BRI1^Q-mCit (BRI1^Y597M/Y599F/Y642A/M657E/F681A fused to mCitrine) (Arabidopsis thaliana) (UniProt O22476)
[2] = target: BRI1-GFP (Arabidopsis thaliana) (UniProt O22476)
[3] = target: BRI1^Q-GFP (BRI1^Y597M/Y599F/Y642A/M657E/F681A with C-terminal GFP) (Arabidopsis thaliana) (UniProt O22476)

- binding [1]: no binding
B1: BRI1-ASSOCIATED KINASE1 (BAK1) (receptor, UniProt Q94F62 26-615)
chain: NAEGDALSALKNSLADPNKVLQSWDATLVTPCTWFHVTCNSDNSVTRVDLGNANLSGQLVMQLGQLPNLQYLELYSNNITGTIPEQLGNLTELVSLDLYLNNLSGPIPSTLGRLKKLRFLRLNNNSLSGEIPRSLTAVLTLQVLDLSNNPLTGDIPVNGSFSLFTPISFANTKLTPLPASPPPPISPTPPSPAGSNRITGAIAGGVAAGAALLFAVPAIALAWWRRKKPQDHFFDVPAEEDPEVHLGQLKRFSLRELQVASDNFSNKNILGRGGFGKVYKGRLADGTLVAVKRLKEERTQGGELQFQTEVEMISMAVHRNLLRLRGFCMTPTERLLVYPYMANGSVASCLRERPESQPPLDWPKRQRIALGSARGLAYLHDHCDPKIIHRDVKAANILLDEEFEAVVGDFGLAKLMDYKDTHVTTAVRGTIGHIAPEYLSTGKSSEKTDVFGYGVMLLELITGQRAFDLARLANDDDVMLLDWVKGLLKEKKLEALVDVDLQGNYKDEEVEQLIQVALLCTQSSPMERPKMSEVVRMLEGDGLAERWEEWQKEEMFRQDFNYPTHHPAVSGWIIGDSTSQIENEYPSGPR

- binding [2]: binds
- binding [3]: binds
B2: RLP44-RFP (RECEPTOR-LIKE PROTEIN44 fused to RFP) (receptor, UniProt Q9M2Y3 25-274)
chain: DPNDEACLKNLRQNLEDPASNLRNWTNSVFSNPCSGFTSYLPGATCNNGRIYKLSLTNLSLRGSISPFLSNCTNLQSLDLSSNQISGVIPPEIQYLVNLAVLNLSSNHLSGEITPQLALCAYLNVIDLHDNELSGQIPQQLGLLARLSAFDVSNNKLSGQIPTYLSNRTGNFPRFNASSFIGNKGLYGYPLQEMMMKSKGLSVMAIVGIGLGSGIASLMISFTGVCLWLRITEKKIVEEEGKISQSMPDY
